According to PubChem BioAssay AID493014 (National Center for Advancing Translational Sciences (NCATS), 2011):
This is one part of the list. The main result of the screen is listed elsewhere. These columns were measured beside it and carry no call. The list favours compounds with an active or inconclusive main result. Potencies come from curve fits of mixed quality, noted in brackets.

Assay: qHTS Assay to Find Inhibitors of Chronic Active B-Cell Receptor Signaling
Settings: ABC-DLBCL IkBa-CBG/CBR reporter, luminescence ratio (green luciferase fused to IkBa over red control in TMD8 lymphoma cells), 4 h
How it was run: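 TMD8 human ABC-DLBCL cells with doxycycline-inducible IκBα–green luciferase fusion and unfused red luciferase, in 0.5% FBS medium; compounds up to 46 uM, 4 h at 37C. Green/red luminescence ratio, filter-overlap corrected, fitted to concentration-response curves.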

[1] = measured here: CBR red luminescence, cell number
[2] = measured here: IkBa-CBG green luminescence

SMILES | AC50 [1] | AC50 [2]
O=C(Nc1nccs1)c1cccc(NC(=O)C(F)(F)F)c1 | 11.2 µM [falling, partial curve, poor fit] | –
O=C(Nc1ccccc1F)c1ccc(O)c2ncccc12 | 25.9 µM [falling, single point] | –
Cn1cccc1Cc1nnc(SCC(=O)Nc2cccc(Cl)c2)n1-c1ccc(F)cc1 | 29.1 µM [falling, single point] | 16.4 µM [rising, partial curve, poor fit]
O=C(CSc1n[nH]c(=O)n1C1CC1)Nc1ccc(F)c([N+](=O)[O-])c1 | 25.9 µM [falling, partial curve, poor fit] | –
Cc1cccc(NC(=O)c2cccc(N3C(=O)C4C5C=CC(C6CC56)C4C3=O)c2)c1 (configuration not stated) | 15.8 µM [falling, single point] | –
CC(C)(C)N=C1NN=C(c2ccc(Cl)cc2)CS1 | 12.6 µM [falling, partial curve] | –
O=C(CCl)NNC(=O)c1c(O)c2ccccc2[nH]c1=O | 35.5 µM [falling, single point] | –
CC(=O)C1=C(C)NC(SCC(=O)Nc2nc3ccccc3s2)=C(C#N)C1c1ccc(Cl)cc1 (configuration not stated) | 1.16 µM [falling, full curve, poor fit] | –
COCc1c(C(=O)N/N=C(/C)c2ccc(OCc3ccccc3)cc2)nnn1-c1nonc1N | 35.5 µM [rising, partial curve, poor fit] | –
O=C(Oc1ccc(-c2nnco2)cc1)N1CCCCC1 | 29.1 µM [rising, single point] | –
NC(N)=Nc1cc2ccccc2c2ccccc12 | 11.2 µM [falling, partial curve, poor fit] | –
CCOC(=O)Cc1csc(SCC(=O)Nc2cc(C)ccc2OC)n1 | 12.6 µM [falling, partial curve, poor fit] | –
CCOc1ccccc1NC(=O)Cn1nc(-c2ccco2)ccc1=O | 0.112 µM [falling, full curve, poor fit] | –
CCn1cc(Cl)c(C(=O)Nc2ccc3c(c2)OCCO3)n1 | 20 µM [falling, single point] | –
CCCS(=O)(=O)NCc1cn2c(C)csc2n1 | 1.3 µM [falling, full curve, poor fit] | –
CCOC(=O)C1CCC(CN(Cc2ccc(OC)cc2)S(=O)(=O)c2ccc(C)cc2)CC1 (configuration not stated) | 12.6 µM [rising, single point] | –
O=C(Nc1cc(Cl)cc(Cl)c1)c1ccc(F)c(S(=O)(=O)N2CCCC2)c1 | 6.31 µM [falling, partial curve] | –
O=C(Nc1cccc(C(F)(F)F)c1)c1cc2c(=O)c3ccccc3oc2nc1C(F)(F)F | 20 µM [rising, partial curve, poor fit] | –
Cn1c(CNC(=O)c2ccccc2F)nnc1SCC(=O)c1ccccc1 | 20 µM [falling, partial curve, poor fit] | –
Cc1ccccc1-n1nc(C(=O)O)c(C)c(C#N)c1=O | 2 µM [rising, partial curve, poor fit] | –
CN(C)S(=O)(=O)c1cccc(NC(=O)COc2cccc3ccccc23)c1 | 29.1 µM [falling, single point] | –
Cc1cccc(NC(=O)CCCc2ccccc2)c1C | 20 µM [falling, partial curve, poor fit] | –

Among those listed so far, these have a CF3 group:
SMILES | AC50 [1] | AC50 [2]
O=C(Nc1nccs1)c1cccc(NC(=O)C(F)(F)F)c1 | 11.2 µM [falling, partial curve, poor fit] | –
O=C(Nc1cccc(C(F)(F)F)c1)c1cc2c(=O)c3ccccc3oc2nc1C(F)(F)F | 20 µM [rising, partial curve, poor fit] | –

Next part

SMILES | AC50 [1] | AC50 [2]
Clc1cccc(Cl)c1NC1=NCCC1 | 23.1 µM [rising, single point] | –
Cc1nc(N)sc1N=Nc1ccccc1C(F)(F)F | – | 20 µM [falling, partial curve, poor fit]
COc1ccc(CNC(=O)C(c2ccco2)N(C(=O)Cc2cccs2)c2cccnc2)cc1 (configuration not stated) | 35.5 µM [falling, single point] | 35.5 µM [rising, partial curve, poor fit]
Cn1nc([N+](=O)[O-])nc1S(C)(=O)=O | 15.8 µM [falling, single point] | –
COc1cc(/C=N/NC(=O)c2ccncc2)ccc1OC(=O)c1cccc(F)c1 | 17.8 µM [rising, single point] | –
CC1CCc2c(sc(NC(=O)/C=C/c3cccs3)c2C(=O)O)C1 (configuration not stated) | 3.16 µM [falling, full curve] | –
O=C(c1ccc(S(=O)(=O)NCc2ccco2)cc1)N1CCN(c2ccc(F)cc2)CC1 | 29.1 µM [rising, partial curve, poor fit] | –
O=C(O)c1nnn(-c2ccc([N+](=O)[O-])cc2)c1-c1ccccc1 | 1.26 µM [rising, partial curve] | –
CC(=O)Nc1nc(C)c(CCCOc2ccc([N+](=O)[O-])cc2)c(=O)[nH]1 | 25.1 µM [rising, single point] | –
Cc1cc(O)ccc1Nc1nc(-c2sc(N)nc2C)cs1 | 14.6 µM [falling, partial curve] | –
COc1ccccc1NC(=O)c1cc(-c2cc(OC)c(OC)c(OC)c2)nc2ccccc12 | 4.47 µM [falling, partial curve, poor fit] | –
CCC1SC2=NC(C)=C(C(=O)OC)C(c3ccc(C)cc3)N2C1=O (configuration not stated) | 2.91 µM [rising, single point] | –
Cc1ccccc1-c1ncc(CN2CCN(C3CCCC3)C(CCO)C2)cn1 (configuration not stated) | 20 µM [rising, partial curve, poor fit] | –
Cc1cc(NC(=O)CSc2n[nH]c(-c3ccc(Cl)cc3Cl)n2)no1 | 29.1 µM [falling, single point] | –
O=C(Nc1ccc2[nH]ncc2c1)c1ccc(F)cc1 | 28.2 µM [falling, single point] | –
O=C(Nc1cccc(CCc2ccccn2)c1)c1ccc(Cl)cc1 | 11.2 µM [falling, partial curve, poor fit] | –
CCOc1ccccc1OCCCC(=O)N1CCN(S(=O)(=O)c2ccc(C)cc2C)CC1 | 23.1 µM [rising, partial curve, poor fit] | –
Cc1ccccc1NC(=O)c1cc2ccccn2n1 | 17.8 µM [falling, partial curve, poor fit] | –
N/C(=N\OC(=O)CCc1ccccc1)c1cccnc1 | 11.2 µM [falling, single point] | –
Cc1ccc(C)c(S(=O)(=O)N2CCCN(C)CC2)c1 | 6.31 µM [falling, partial curve, poor fit] | –
CCCc1cc(=O)n2[nH]c(C)nc2n1 | 0.13 µM [falling, full curve, poor fit] | –
CSC1=NCCN1C(=O)c1c(F)cccc1Cl | 0.146 µM [rising, full curve, poor fit] | –

SMILES | AC50 [1] | AC50 [2]
Cc1ccc(S(=O)(=O)/N=C(/Nc2ccc([N+](=O)[O-])cc2[N+](=O)[O-])c2ccccc2)cc1 | 16.4 µM [rising, single point] | –
CCCCn1c(=O)[nH]c(=O)c2c1nc(-c1ccccc1F)n2Cc1ccccc1OC | 22.4 µM [falling, single point] | –
CCc1nnc(NC(=O)c2cc3ccccc3oc2=O)s1 | 0.92 µM [rising, full curve, poor fit] | –
CCOC(=O)c1ccc(NC(=O)c2ccc3c(c2)OCO3)cc1 | 5.17 µM [falling, partial curve, poor fit] | –
CCOc1ccccc1C1C(C#N)=C(N)Oc2n[nH]c(CC)c21 (configuration not stated) | 3.55 µM [falling, partial curve] | –
Cc1cc([N+](=O)[O-])nn1CC(=O)Nc1ccc(F)cc1 | 14.1 µM [falling, single point] | –
Cn1ccnc1Sc1ccccc1[N+](=O)[O-] | 35.5 µM [falling, single point] | –
O=C(CSc1nc2ccccc2c(=O)n1NC(=O)c1ccccc1)c1ccccc1 | 14.1 µM [falling, single point] | –
O=C(CSC(=S)N1CCCCC1)c1c(F)cccc1F | 20 µM [falling, partial curve] | 35.5 µM [falling, single point]
CCCCC(=O)Nc1cccc(NC(=O)c2ccc(Br)cc2)c1 | 3.16 µM [falling, partial curve, poor fit] | –
Oc1ccc(C=Nc2ccccc2-c2nc3ccccc3[nH]2)c(O)c1 | 29.1 µM [falling, partial curve, poor fit] | –
COc1ccc(Cl)cc1NC(=O)Nc1ccc(Br)cn1 | 0.116 µM [rising, full curve] | –
COc1cc(/C=C/c2cc(C(=O)O)c3ccccc3n2)ccc1OC(F)F | 0.501 µM [falling, full curve] | –
O=C(CN1C(=O)NC2NC(=O)NC21)NN=C1CCCC1 (configuration not stated) | 6.51 µM [rising, single point] | –
CNC(=O)CSc1nnc(-c2cccc(S(=O)(=O)N3CCOCC3)c2)n1-c1ccc(F)cc1 | 23.1 µM [falling, partial curve, poor fit] | –
O=C(O)c1cccc(NC(=S)NCc2ccccc2)c1 | 11.2 µM [falling, partial curve] | –
Cc1csc(NC(=O)Cc2c[nH]c3ccccc23)n1 | 35.5 µM [falling, single point] | –
O=C(Cc1ccccn1)Nc1ccccc1 | 28.2 µM [rising, single point] | –
O=C(OCc1ccccc1F)c1ccc2c(c1)-c1ccccc1C2=O | 0.0891 µM [falling, full curve, poor fit] | –
Cc1sc(NC(=O)CN(C)C2CCCCC2)nc1-c1ccc2c(c1)CCN2S(=O)(=O)c1ccccc1 | 1.3 µM [falling, full curve, poor fit] | –

Part of the list above, in CSV form.
SMILES,AC50 [1],AC50 [2]
Cc1ccc(S(=O)(=O)/N=C(/Nc2ccc([N+](=O)[O-])cc2[N+](=O)[O-])c2ccccc2)cc1,"16.4 µM [rising, single point]",–
O=C(CN1C(=O)NC2NC(=O)NC21)NN=C1CCCC1 (configuration not stated),"6.51 µM [rising, single point]",–
